Results: the supplement of paper PMC10849652
Some of the results follow.

What was measured:
Experiment in all cases: log2 fold change, soluble protein after heating vs DMSO (PISA); higher = thermal stabilisation; K562 cells, 10 uM, 30 min; active = over 0.2 and 3.5 SD of the protein, either way, in both replicates (recomputed)
[1] = compound: NC(=O)Nc1cc(-c2cccc(F)c2)sc1C(=O)N[C@H]1CCCNC1
Outline: (§1)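 K562 cells (2×10^6 cells/mL) were treated with 10 μM compound for 30 min, and aliquots were heated for 3 min over 48°C-58°C. Pooled aliquots were extracted in PBS with 0.5% NP-40 at 4°C, and the supernatant after 21,000xg for 90 min was measured by TMTpro 16plex LC-MS/MS with channel sums equalised. Reported thermal stability, relative to control samples and from duplicates, is a log2 fold change.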

entinostat = compound: Nc1ccccc1NC(=O)c1ccc(CNC(=O)OCc2cccnc2)cc1 [entinostat]
Outline: as §1

[2] = compound: NC(=O)c1cnc(N[C@@H]2CCCC[C@@H]2N)nc1Nc1cccc(-n2nccn2)c1
Outline: as §1

vorinostat = compound: O=C(CCCCCCC(=O)Nc1ccccc1)NO [vorinostat]
Outline: as §1

[3] = compound: NC1(c2ccc(-c3nc4ccn5c(=O)[nH]nc5c4cc3-c3ccccc3)cc2)CCC1
Outline: as §1

[4] = compound: NCC(=O)Nc1ccc(-n2nc(C(F)(F)F)cc2-c2ccc3c(ccc4ccccc43)c2)cc1
Outline: as §1

citarinostat = compound: O=C(CCCCCCNC(=O)c1cnc(N(c2ccccc2)c2ccccc2Cl)nc1)NO [citarinostat]
Outline: as §1

silmitasertib = compound: O=C(O)c1ccc2c(c1)nc(Nc1cccc(Cl)c1)c1ccncc12 [silmitasertib]
Outline: as §1

[5] = compound: O=C1NC(=O)C(c2cnc3ccccn23)=C1c1cn2c3c(cc(F)cc13)CN(C(=O)N1CCCCC1)CC2
Outline: as §1

[6] = compound: c1cc(OCCN2CCCCC2)cc(-c2n[nH]c3ccc(-c4nnc[nH]4)cc23)c1
Outline: as §1

entospletinib = compound: c1cn2cc(-c3ccc4cn[nH]c4c3)nc(Nc3ccc(N4CCOCC4)cc3)c2n1 [entospletinib]
Outline: as §1

Measured: log2 fold change

PRMT2 (UniProt P55345)
inactive: [1] -0.317 | entinostat 0.032

PRC1 (UniProt O43663)
inactive: [1] -0.084 | [2] 0.033 | entinostat 0.086

PPP2R2A, A0A590UJJ1
inactive: [2] -0.26 | vorinostat -0.042

PRKCSH isoform 2 (UniProt P14314)
inactive: [2] -0.166 | [3] -0.016 | [4] -0.237 | vorinostat 0.039 | citarinostat 0.027 | silmitasertib 0.076 | [5] -0.182 | [6] -0.145 | entospletinib -0.083

PRR14L (UniProt Q5THK1)
inactive: [2] -0.205 | [4] -0.176 | vorinostat -0.009

Three successive records from above, for reference:
PRMT2 (UniProt P55345)
inactive: [1] -0.317 | entinostat 0.032

PRC1 (UniProt O43663)
inactive: [1] -0.084 | [2] 0.033 | entinostat 0.086

PPP2R2A, A0A590UJJ1
inactive: [2] -0.26 | vorinostat -0.042

Remaining list, next part

PRSS2 (UniProt P07478)
inactive: [1] -0.137 | [2] 0.093 | [4] 0.027 | entinostat -0.13 | [5] -0.013

PRF1 (UniProt P14222)
inactive: [1] -0.087 | entinostat -0.191 | [5] 0.018

PRKD2 (UniProt M0R346)
inactive: [1] -0.279 | entinostat 0.032 | vorinostat 0.021 | [5] -0.15

PRKX (UniProt P51817)
inactive: [3] -0.243 | silmitasertib 0.153

PPP1R15A (UniProt O75807)
inactive: [1] -0.13 | entinostat -0.061 | [5] -0.164

PRADC1 (UniProt Q9BSG0)
inactive: [1] -0.064 | [3] 0.084 | [4] 0.174 | entinostat -0.02 | vorinostat 0.009 | citarinostat -0.614 | silmitasertib 0.135 | [5] 0 | [6] -0.117 | entospletinib 0.251

PPP1R12C (UniProt Q9BZL4)
inactive: [1] -0.151 | [3] -0.031 | [4] -0.022 | entinostat 0.072 | vorinostat 0.487 | citarinostat -0.008 | silmitasertib 0.122 | [5] -0.073 | [6] -0.278

PPP1R14B (UniProt Q96C90)
inactive: [1] -0.084 | [2] 0.185 | [3] 0.138 | [4] 0.24 | entinostat -0.117 | citarinostat -0.02 | silmitasertib -0.079 | [5] -0.02 | [6] 0.049 | entospletinib -0.029

PRR3 (UniProt P79522)
inactive: [1] 0.004 | entinostat -0.087 | vorinostat -0.078 | [5] -0.067

PPP1CC (UniProt F8W1A0)
inactive: [3] 0.055 | vorinostat 0.105 | silmitasertib 0.044

PPP2R5B (UniProt Q15173)
inactive: [2] 0.017 | [3] -0.167 | [4] -0.006 | vorinostat 0.112 | citarinostat 0.122 | silmitasertib 0 | [6] 0.127

PROSER1 (UniProt Q86XN7)
inactive: [1] -0.106 | entinostat -0.122

PPTC7 (UniProt Q8NI37)
inactive: [4] 0.01 | vorinostat 0.037 | [5] 0.042

PRR16 (UniProt Q569H4)
inactive: vorinostat -0.043

PRIMPOL (UniProt Q96LW4)
inactive: [1] -0.283 | [2] 0.045 | entinostat -0.112

PRPF6 (UniProt O94906)
inactive: [1] 0.238 | [2] 0.041 | entinostat 0.03 | vorinostat -0.059 | [5] -0.226

PROSER3, A0A2R8Y8D9
inactive: [1] 0.014 | [2] -0.079 | [3] -0.003 | entinostat 0.02 | citarinostat -0.1 | silmitasertib 0.111 | [5] -0.089 | [6] 0.193 | entospletinib -0.193

PRNP (UniProt P04156)
inactive: [1] 0.06 | [3] 0.086 | entinostat -0.005 | vorinostat -0.018 | silmitasertib 0.019

PPP1R3D (UniProt O95685)
inactive: [3] 0.062 | vorinostat -0.04 | silmitasertib 0.022

PPP2R5C isoform 2 (UniProt Q13362)
inactive: [3] -0.183 | citarinostat 0.069 | silmitasertib -0.064 | [6] 0.105

Retrieved one by one from the entries so far, two records:
PPP2R5C isoform 2 (UniProt Q13362)
inactive: [3] -0.183 | citarinostat 0.069 | silmitasertib -0.064 | [6] 0.105

PRR3 (UniProt P79522)
inactive: [1] 0.004 | entinostat -0.087 | vorinostat -0.078 | [5] -0.067

Later entries.

PRELID1 (UniProt Q9Y255)
inactive: [1] -0.027 | [3] 0.219 | [4] 0.283 | entinostat 0.026 | vorinostat -0.008 | silmitasertib -0.055 | [5] -0.06

PRG2 (UniProt P13727)
inactive: [3] -0.111 | [4] 0.152 | citarinostat 0.029 | silmitasertib 0.271 | [5] -0.163 | [6] -0.175 | entospletinib -0.062

PROCR (UniProt Q9UNN8)
inactive: [1] 0.064 | [2] 0.278 | [4] 0.082 | entinostat -0.064 | vorinostat 0.019 | citarinostat -0.045 | [5] -0.056 | [6] 0.019 | entospletinib 0.018

PRR4 (UniProt Q16378)
inactive: [2] 0.25 | [3] 0.05 | silmitasertib -0.027

PPP1R13L (UniProt Q8WUF5)
inactive: [4] 0.034 | vorinostat -0.044 | citarinostat -0.183 | [5] -0.001 | [6] -0.158 | entospletinib 0.096

PPP2R3B (UniProt Q9Y5P8)
inactive: [2] -0.097 | [3] 0.305 | [4] -0.055 | silmitasertib 0.275 | [5] -0.263

PRMT6 (UniProt Q96LA8)
inactive: [2] -0.004 | [3] -0.148 | [4] -0.003 | vorinostat -0.037 | citarinostat 0.022 | silmitasertib 0.072 | [5] -0.02 | [6] -0.02 | entospletinib -0.032

PRELID3B (UniProt Q9Y3B1)
inactive: [2] -0.222 | vorinostat -0.076 | [5] -0.011

PPP1R21 (UniProt Q6ZMI0)
inactive: [1] -0.046 | [2] -0.056 | [4] -0.061 | entinostat 0.094 | vorinostat 0.043 | [5] 0.019

PPP2R3C (UniProt Q969Q6)
inactive: citarinostat 0.028 | [6] -0.313 | entospletinib 0.308

PRR12 (UniProt Q9ULL5)
inactive: [1] 0.07 | entinostat -0.011

PRRG1 (UniProt O14668)
inactive: [3] 0.099 | vorinostat -0.037 | silmitasertib 0.062
